We go through 63 compounds from PubChem BioAssay AID493014 (National Center for Advancing Translational Sciences (NCATS), 2011).

The nature of the test: qHTS Assay to Find Inhibitors of Chronic Active B-Cell Receptor Signaling. Particulars: ABC-DLBCL IkBa-CBG/CBR reporter, luminescence ratio (green luciferase fused to IkBa over red control in TMD8 lymphoma cells), 4 h. A digest of the protocol: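 TMD8 ABC-DLBCL cells carrying doxycycline-inducible green luciferase fused to IkappaBalpha plus unfused red luciferase were exposed to compounds (up to 46 uM) for 4 hrs at 37C. Activity came from the overlap-corrected green/red luminescence ratio.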
For orientation: qHTS replaces the single test concentration by a dilution series.

Where [1] appears, read: measured here: CBR red luminescence, cell number.
Where [2] appears, read: measured here: IkBa-CBG green luminescence.

Some of the results follow. These are further read-outs of the screen, such as a control signal, another cell line or another target. No call is given for them. Most of these compounds were active or inconclusive in the main read-out, so they are no random draw. Words in brackets tell the shape of the fitted curve; partial curves, single points and poor fits give uncertain potencies.

What is called AC50 is the midpoint of the concentration-response curve, whichever way the signal moves. With `COC(=O)COc1ccc2c(c1)O/C(=C\c1cccc([N+](=O)[O-])c1)C2=O`, under setting [1], the AC50 is 5.62 µM [rising, partial curve]. Take `COc1cc(/C=C(/C(=O)c2cccs2)c2nc3ccccc3[nH]2)cc(OC)c1O`: the AC50 by setting is: under setting [1], 2.59 µM [falling, partial curve]; under setting [2], 20.6 µM [rising, partial curve, poor fit].

As to `COc1ccc(Cc2nnc(NC(=O)c3ccccc3F)s2)cc1OC`, the AC50 under setting [1] was 7.08 µM [falling, partial curve, poor fit]. `CCn1c(SCC(=O)N2CCN(c3ccccc3)CC2)nc2c(c1=O)SC(C)C2` (configuration not stated): the AC50 under setting [2] was 23.1 µM [rising, partial curve, poor fit]. Consider `COc1ccc(-c2csc3nc(C)nc(N4CCC(C)CC4)c23)cc1OC`, for which the AC50 under setting [1] was 11.2 µM [rising, partial curve]. Take `CCOc1ccc(NC(=O)CSc2nnc(-c3cc(C)[nH]n3)n2N)cc1`: the AC50 under setting [1] was 0.501 µM [rising, full curve, poor fit].

With `Cc1nc2ccccc2n1C1CC(=O)N(N(C)C)C1=O` (configuration not stated), the AC50 under setting [1] is 29.1 µM [falling, single point]. Same read-out and setting: the figure for `COc1ccc(NC(=O)Cc2ccc(Cl)c(Cl)c2)cn1` is 2 µM [rising, full curve, poor fit]; for `O=C(CSC1=NC(=O)C(Cc2ccccc2)C(=O)N1)NC1CCCCC1` (configuration not stated) it is 29.1 µM [falling, single point]. `CCCc1nc2scc(-c3ccc(C)cc3)c2c(=O)n1N`: the AC50 under setting [1] is 18.4 µM [rising, partial curve, poor fit].

For the compound `Cc1noc(C)c1CSc1ncnc2ccccc12`, the half-maximal activity concentration (AC50) is, setting by setting: under setting [1], 22.4 µM [rising, partial curve]; under setting [2], 11.2 µM [falling, partial curve]. With `COc1cc(/C=C/C(=O)N(C)CC(=O)Nc2ccccc2Br)cc2c1OCCO2`, the AC50 under setting [1] is 16.4 µM [falling, single point].

In the case of `COc1cccc(/C=C2\CCc3ccccc3C2=O)c1`, the AC50 under setting [1] was 35.5 µM [falling, single point]. On the same count and under the same terms, the figure for `O=C(NC(Cc1ccccc1)C(=O)NC1CC1)OCc1ccccc1` (configuration not stated) is 11.2 µM [rising, partial curve]; for `O=C(Nc1nc(-c2ccccn2)cs1)c1ccc(-c2ccccc2F)o1` it is 25.9 µM [falling, single point]; for `CC(C)C(C)NC(=O)COC(=O)c1cc(S(=O)(=O)N(C)C)ccc1N1CCCC1` (configuration not stated) it is 6.31 µM [rising, partial curve, poor fit]. Turning to `O=c1c2ccccc2oc2nc(-c3ccco3)n(CCc3ccccc3)c(=O)c12`, under setting [1], the AC50 was 12.6 µM [falling, partial curve, poor fit]. Same read-out and setting: the result for `Cc1ccc(C2Oc3ccccc3C3=C2C(c2cccs2)n2ncnc2N3)cc1` (configuration not stated) reads 12.6 µM [falling, partial curve, poor fit]; that for `CN1c2ccccc2-c2nc3ccccc3n2C1c1cccs1` (configuration not stated), 25.9 µM [falling, single point]. Regarding `COc1ccccc1-n1c(SCC(=O)Nc2ccc(NC(C)=O)cc2)nc2c([nH]c3ccccc32)c1=O`, the AC50 under setting [1] is 5.01 µM [falling, full curve]. With `CN(C(=O)c1ccc(-c2nn(C)c(=O)c3ccccc23)cc1)C1CCCCC1`, the AC50 under setting [2] was 15.8 µM [falling, partial curve, poor fit]. As to `O=C(Nc1ccc(Br)c2ccccc12)c1ccc2ccccc2c1O`, under setting [1], the AC50 is 35.5 µM [falling, single point]. The same measure, in the same setting: the result for `O=C(COc1ccc(F)cc1)N1CCC(c2ccccc2)C1` (configuration not stated) reads 23.1 µM [falling, single point]; that for `CC(C)OC(=O)c1ccc(NC(=O)c2cccc(-n3cnnn3)c2)cc1`, 0.82 µM [rising, partial curve]; that for `O=[N+]([O-])c1cc2oc3c(c2c(C=NCc2ccncc2)c1O)CCCC3`, 29.1 µM [rising, single point]. Take `CC1=NN(c2ccccc2)C(=O)/C1=C/c1c(O)n(-c2ccc(F)cc2)[nH]c1=O`: the AC50 under setting [1] is 13 µM [falling, single point].

As for `Cc1ccc(/C=N\Nc2cn[nH]c(=O)c2Cl)cc1`, under setting [1], the concentration at half-maximal activity (AC50) is 0.92 µM [falling, full curve, poor fit]. Take `COc1ccccc1NS(=O)(=O)c1ccc(O)c(C(=O)OCC(=O)Nc2ccccc2F)c1`: the concentration at half-maximal activity (AC50) under setting [1] was 11.2 µM [falling, partial curve, poor fit].

As for `COC(=O)c1ccc(/C=C/C(=O)c2cccc(OC)c2)cc1`, the AC50 was 10.3 µM [rising, partial curve, poor fit] under setting [1] and 23.1 µM [falling, single point] under setting [2]. Consider `CC1CCN(c2ccc(C(=O)Nc3ccc4c(c3)OCO4)cc2[N+](=O)[O-])CC1`, for which the AC50 under setting [1] was 6.51 µM [rising, single point].

Regarding `COC(=O)Cc1c(C)c2ccc(OCC(=O)c3ccc(OC)c(OC)c3)cc2oc1=O`, the AC50 under setting [1] was 0.0891 µM [rising, full curve, poor fit].

Turning to `NC(=O)c1ccc(N2CCCCC2)c(N2C(=O)C3C4C=CC(C4)C3C2=O)c1` (configuration not stated), the AC50 under setting [1] is 15.8 µM [rising, single point]. The same measure, in the same setting: the result for `COC(=O)c1ccc(NC(=O)CNc2ccccc2)cc1` reads 2.24 µM [falling, full curve]; that for `Cc1ccc(N=Cc2nc(-c3ccco3)oc2O)cc1`, 7.08 µM [falling, partial curve].

`O=C(NCc1ccc2c(c1)OCO2)C1COc2ccccc2O1` (configuration not stated): the AC50 under setting [1] is 14.6 µM [rising, partial curve]. As for `O=C(Nc1nc(-c2ccc3c(c2)OCO3)cs1)C1COc2ccccc2O1` (configuration not stated), the AC50 under setting [1] is 16.4 µM [falling, partial curve, poor fit]. Same read-out and setting: the result for `CN(C)CCCn1c2c(c(SCC(=O)Nc3cccc4ccccc34)nc1=O)CCC2` reads 13 µM [falling, partial curve, poor fit]. For the compound `COC(=O)c1sc(NC(=O)/C=C/c2ccc(C)cc2)nc1C`, the AC50 under setting [1] is 13 µM [falling, partial curve]. The same measure, in the same setting: the result for `O=C1CCCN1S(=O)(=O)c1ccccc1` reads 3.16 µM [rising, partial curve, poor fit]; that for `Cc1ccc(NC(=O)Nc2ccc3c(c2)N(C)C(=O)CS3)nc1`, 25.9 µM [rising, partial curve, poor fit]; that for `CCN(c1ccccc1)S(=O)(=O)c1ccc(Cl)c(NC(=O)CN(C)C2CCN(C)CC2)c1`, 35.5 µM [falling, single point]. For `NS(=O)(=O)c1ccc(N=Nc2ccc(=O)[nH]c2O)cc1`, the AC50 under setting [1] is 0.562 µM [falling, full curve, poor fit]. Take `COC(=O)c1ccc(NC(=S)NC(=O)c2c(-c3ccccc3)noc2C)cc1`: under setting [1], the AC50 was 22.4 µM [rising, single point]. Regarding `O=C(CSc1ccc(-c2ccccn2)nn1)Nc1nccs1`, the AC50 under setting [1] is 6.31 µM [falling, single point]. As to `CCCn1nc(C(=O)Nc2nnc(C3CC3)s2)c2ccccc2c1=O`, under setting [1], the concentration at half-maximal activity (AC50) is 2.06 µM [rising, partial curve, poor fit]. The same measure, in the same setting: the figure for `O=C1CCCC2=C1C1(O)C(=O)c3ccccc3C1(O)O2` (configuration not stated) is 6.51 µM [rising, single point]; for `CCN(CC)CCNCC1C(=O)O[C@@H]2C[C@@]3(C)CCC[C@H](C)C3=C[C@H]12` (some centres not stated) it is 15.8 µM [falling, partial curve]. Turning to `Cc1nc(NCCCN2CCOCC2)c2oc3ccccc3c2n1`, the AC50 under setting [2] is 14.1 µM [rising, partial curve, poor fit]. For the compound `CCS(=O)(=O)NCC(c1ccco1)N1CCN(c2ccccc2)CC1` (configuration not stated), the AC50 under setting [1] was 3.66 µM [rising, single point]. As for `COc1cc(/C=N/NC(=O)c2ccc3c(c2)OCCO3)c(Br)c(Br)c1O`, the AC50 under setting [1] is 7.08 µM [falling, partial curve]. The same measure, in the same setting: the result for `CCc1cccc(NC(=O)Cn2cc(C=O)c3ccccc32)c1` reads 0.794 µM [falling, full curve, poor fit]. As to `Cc1ccccc1NS(=O)(=O)c1cc(C(=O)Nc2ccccc2-c2ccccc2)ccc1Cl`, the AC50 is, setting by setting: under setting [1], 23.1 µM [falling, single point]; under setting [2], 25.9 µM [rising, partial curve, poor fit]. Take `O=C(/C=C\c1ccc(-c2ccccc2)o1)c1ccccc1`: the AC50 under setting [1] was 8.2 µM [falling, partial curve].

For `O=C(CCSc1nc(-c2ccco2)cc(C(F)(F)F)n1)N1CCCc2ccccc21`, the AC50 under setting [1] was 6.51 µM [falling, single point]. As to `Cc1cccc(NC(=O)C2C3C=CC(O3)C2C(=O)O)c1C` (configuration not stated), the AC50 under setting [1] was 1.12 µM [rising, full curve, poor fit]. Take `CCCc1cc(-n2ccnc2)n2c(nc3ccccc32)c1C#N`: the concentration at half-maximal activity (AC50) under setting [1] was 0.291 µM [rising, full curve, poor fit]. Still for that read-out and setting: the result for `CC(=O)Nc1cccc(C(=O)N/N=C/c2ccccc2F)c1` reads 18.4 µM [falling, single point]; that for `Cc1ccc(-n2cc(CNC(C)c3cnn(C)c3)c(-c3ccc(F)cc3)n2)cc1` (configuration not stated), 17.8 µM [falling, single point]. Turning to `O=C(NC(=S)NCc1nc2ccccc2[nH]1)c1ccc(F)cc1`, the AC50 under setting [1] was 14.1 µM [rising, partial curve, poor fit].

`CN(c1ccccc1)S(=O)(=O)c1cccc(NC(=O)Cc2ccc(Cl)cc2)c1`: under setting [1], the AC50 was 29.1 µM [falling, single point]. Same read-out and setting: the figure for `Cc1cccc(NC(=O)[C@H](Cc2ccccc2)NC(=O)OCc2ccccc2)c1` is 18.4 µM [rising, partial curve]; for `CCCOc1c(Cl)cc(C(=O)Nc2ccc3c(c2)OCO3)cc1OCC` it is 20.6 µM [falling, partial curve, poor fit]; for `COC(=O)c1c(C)[nH]c(C(=O)COC(=O)c2c(C)noc2C)c1C` it is 0.461 µM [rising, full curve, poor fit].
